The values below come from article doi:10.1101/2023.02.03.527076.

No constants are given. Whether binding was seen depends on the method and setting. In cells and extracts the contact can be indirect. Here binding means that the protein was enriched with, or labelled near, the bait; the list need not be complete. Tags and fused reporters may be left off the sequences shown.

The labels stand for the following.
T1: TAP-AtSYP32 (9 x myc-AtSYP32) fusion protein (Arabidopsis thaliana) (UniProt Q9LK09)
T1 sequence: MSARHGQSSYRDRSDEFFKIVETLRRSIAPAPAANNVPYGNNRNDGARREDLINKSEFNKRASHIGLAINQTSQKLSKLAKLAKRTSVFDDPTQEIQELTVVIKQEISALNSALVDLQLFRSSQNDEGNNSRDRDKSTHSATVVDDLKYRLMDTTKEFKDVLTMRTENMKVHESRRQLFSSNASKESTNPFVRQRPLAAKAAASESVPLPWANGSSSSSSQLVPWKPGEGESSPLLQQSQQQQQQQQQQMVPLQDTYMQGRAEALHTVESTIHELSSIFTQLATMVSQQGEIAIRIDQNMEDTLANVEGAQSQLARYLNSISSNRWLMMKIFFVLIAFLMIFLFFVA

B1: CESA9 (endogenous) (enzyme, UniProt Q9SJ22 1-1088)
chain: MNTGGRLIAGSHNRNEFVLINADDTARIRSAEELSGQTCKICRDEIELTDNGEPFIACNECAFPTCRPCYEYERREGNQACPQCGTRYKRIKGSPRVEGDEEDDDIDDLEHEFYGMDPEHVTEAALYYMRLNTGRGTDEVSHLYSASPGSEVPLLTYCDEDSDMYSDRHALIVPPSTGLGNRVHHVPFTDSFASIHTRPMVPQKDLTVYGYGSVAWKDRMEVWKKQQIEKLQVVKNERVNDGDGDGFIVDELDDPGLPMMDEGRQPLSRKLPIRSSRINPYRMLIFCRLAILGLFFHYRILHPVNDAFGLWLTSVICEIWFAVSWILDQFPKWYPIERETYLDRLSLRYEKEGKPSELAPVDVFVSTVDPLKEPPLITANTVLSILAVDYPVEKVACYVSDDGAAMLTFEALSYTAEFARKWVPFCKKFSIEPRAPEWYFSQKMDYLKHKVDPAFVMERRAMKRDYEEFKVKINALVSVSQKVPEDGWTMQDGTPWPGNNVRDHPGMIQVFLGHSGVCDMDGNELPRLVYVSREKRPGFDHHKKAGAMNSLIRVSAVLSNAPYLLNVDCDHYINNSKAIREAMCFMMDPQSGKKICYVQFPQRFDGIDRHDRYSNRNVVFFDINMKGLDGIQGPIYVGTGCVFRRQALYGFDAPKKKQPPGRTCNCWPKWCCLCCGMRKKKTGKVKDNQRKKPKETSKQIHALEHIEEGLQVTNAENNSETAQLKLEKKFGQSPVLVASTLLLNGGVPSNVNPASLLRESIQVISCGYEEKTEWGKEIGWIYGSVTEDILTGFKMHCHGWRSVYCMPKRAAFKGSAPINLSDRLHQVLRWALGSVEIFLSRHCPIWYGYGGGLKWLERFSYINSVVYPWTSLPLLVYCSLPAICLLTGKFIVPEISNYAGILFLLMFMSIAVTGILEMQWGKIGIDDWWRNEQFWVIGGVSSHLFALFQGLLKVLAGVSTNFTVTSKAADDGEFSELYIFKWTSLLIPPTTLLIINIVGVIVGVSDAINNGYDSWGPLFGRLFFALWVIVHLYPFLKGLLGKQDRVPTIILVWSILLASILTLLWVRVNPFVSKDGPVLEICGLDCLK
B2: SEC22 (endogenous) (protein, UniProt Q94AU2 1-218)
chain: MVKMTLIARVTDGLPLAEGLDDGRDLPDSDMYKQQVKALFKNLSRGQNDASRMSVETGPYVFHYIIEGRVCYLTMCDRSYPKKLAFQYLEDLKNEFERVNGPNIETAARPYAFIKFDTFIQKTKKLYQDTRTQRNIAKLNDELYEVHQIMTRNVQEVLGVGEKLDQVSEMSSRLTSESRIYADKAKDLNRQALIRKWAPVAIVFGVVFLLFWVKNKLW
B3: CESA1 (endogenous) (enzyme, UniProt O48946 1-1081)
chain: MEASAGLVAGSYRRNELVRIRHESDGGTKPLKNMNGQICQICGDDVGLAETGDVFVACNECAFPVCRPCYEYERKDGTQCCPQCKTRFRRHRGSPRVEGDEDEDDVDDIENEFNYAQGANKARHQRHGEEFSSSSRHESQPIPLLTHGHTVSGEIRTPDTQSVRTTSGPLGPSDRNAISSPYIDPRQPVPVRIVDPSKDLNSYGLGNVDWKERVEGWKLKQEKNMLQMTGKYHEGKGGEIEGTGSNGEELQMADDTRLPMSRVVPIPSSRLTPYRVVIILRLIILCFFLQYRTTHPVKNAYPLWLTSVICEIWFAFSWLLDQFPKWYPINRETYLDRLAIRYDRDGEPSQLVPVDVFVSTVDPLKEPPLVTANTVLSILSVDYPVDKVACYVSDDGSAMLTFESLSETAEFAKKWVPFCKKFNIEPRAPEFYFAQKIDYLKDKIQPSFVKERRAMKREYEEFKVRINALVAKAQKIPEEGWTMQDGTPWPGNNTRDHPGMIQVFLGHSGGLDTDGNELPRLIYVSREKRPGFQHHKKAGAMNALIRVSAVLTNGAYLLNVDCDHYFNNSKAIKEAMCFMMDPAIGKKCCYVQFPQRFDGIDLHDRYANRNIVFFDINMKGLDGIQGPVYVGTGCCFNRQALYGYDPVLTEEDLEPNIIVKSCCGSRKKGKSSKKYNYEKRRGINRSDSNAPLFNMEDIDEGFEGYDDERSILMSQRSVEKRFGQSPVFIAATFMEQGGIPPTTNPATLLKEAIHVISCGYEDKTEWGKEIGWIYGSVTEDILTGFKMHARGWISIYCNPPRPAFKGSAPINLSDRLNQVLRWALGSIEILLSRHCPIWYGYHGRLRLLERIAYINTIVYPITSIPLIAYCILPAFCLITDRFIIPEISNYASIWFILLFISIAVTGILELRWSGVSIEDWWRNEQFWVIGGTSAHLFAVFQGLLKVLAGIDTNFTVTSKATDEDGDFAELYIFKWTALLIPPTTVLLVNLIGIVAGVSYAVNSGYQSWGPLFGKLFFALWVIAHLYPFLKGLLGRQNRTPTIVIVWSVLLASIFSLLWVRINPFVDANPNANNFNGKGGVF
B4: UDP-sugar-pyrophosphorylase (USP) (endogenous) (enzyme, UniProt Q9C5I1 1-614)
chain: MASTVDSNFFSSVPALHSNLGLLSPDQIELAKILLENGQSHLFQQWPELGVDDKEKLAFFDQIARLNSSYPGGLAAYIKTAKELLADSKVGKNPYDGFSPSVPSGENLTFGTDNFIEMEKRGVVEARNAAFVLVAGGLGERLGYNGIKVALPRETTTGTCFLQHYIESILALQEASNKIDSDGSERDIPFIIMTSDDTHSRTLDLLELNSYFGMKPTQVHLLKQEKVACLDDNDARLALDPHNKYSIQTKPHGHGDVHSLLYSSGLLHKWLEAGLKWVLFFQDTNGLLFNAIPASLGVSATKQYHVNSLAVPRKAKEAIGGISKLTHVDGRSMVINVEYNQLDPLLRASGFPDGDVNCETGFSPFPGNINQLILELGPYKDELQKTGGAIKEFVNPKYKDSTKTAFKSSTRLECMMQDYPKTLPPTARVGFTVMDIWLAYAPVKNNPEDAAKVPKGNPYHSATSGEMAIYRANSLILQKAGVKVEEPVKQVLNGQEVEVWSRITWKPKWGMIFSDIKKKVSGNCEVSQRSTMAIKGRNVFIKDLSLDGALIVDSIDDAEVKLGGLIKNNGWTMESVDYKDTSVPEEIRIRGFRFNKVEQLEKKLTQPGKFSVED
B5: BET11 (endogenous) (protein, UniProt Q9M2J9 1-122)
chain: MNPRREPRGGRSSLFDGIEEGGIRAASSYSHEINEHENERALEGLQDRVILLKRLSGDINEEVDTHNRMLDRMGNDMDSSRGFLSGTMDRFKTVFETKSSRRMLTLVASFVGLFLVIYYLTR
B6: Dynamin related protein2A (DRP2A) (endogenous) (protein, UniProt Q9SE83 1-914)
chain: MEAIDELSQLSDSMKQAASLLADEDPDETSSSKRPATFLNVVALGNVGAGKSAVLNSLIGHPVLPTGENGATRAPIIIELSRESSLSSKAIILQIDNKSQQVSASALRHSLQDRLSKGASGKNRDEINLKLRTSTAPPLKLVDLPGLDQRIVDESMIAEYAQHNDAILLVIVPASQASEISSSRALKIAKEYDPESTRTIGIIGKIDQAAENSKALAAVQALLSNQGPPKTTDIPWVAVIGQSVSIASAQSGSGENSLETAWRAESESLKSILTGAPQSKLGRIALVDTLASQIRSRMKLRLPSVLSGLQGKSQIVQDELARLGEQLVNSAEGTRAIALELCREFEDKFLLHLAGGEGSGWKVVASFEGNFPNRIKQLPLDRHFDLNNVKRVVLEADGYQPYLISPEKGLRSLIKIVLELAKDPARLCVDEVHRVLVDIVSASANATPGLGRYPPFKREVVAIASAALDGFKNEAKKMVVALVDMERAFVPPQHFIRLVQRRMERQRREEELKGRSSKKGQDAEQSLLSRATSPQPDGPTAGGSLKSMKDKPSPQDKETPEVSGLKTAGPEGEITAGYLMKKSAKTNGWSRRWFVLNEKTGKLGYTKKQEERNFRGTITLEECTIEEIPEDEVEKSKSSKDKKANGPDSKGPGLVFKITCKVPYKTVLKAHNALVLKAESVVDKNEWINKLQKVIQARGGQVGSVSMRQSLSEGSLDKMVRKPIDPEEELRWMSQEVRGYVEAVLNSLAANVPKAVVLCQVEKAKEDMLNQLYSSISAIGNERIESLIQEDQNVKRRRERYQKQSSLLSKLTRQLSIHDNRAAAASSYSDNSGTESSPRASGGSSGDDWMNAFNSAANGPSDSLSKYGSGGHSRRYSDPAQNGDAASPGSGSNRRTTPNRLPPAPPPTGSAYRY
B7: SEC31B (endogenous) (protein, UniProt Q8L611 1-1104)
chain: MACIKGVGRSASVALAPDAPYMAAGTMAGAVDLSFSSSANLEIFKLDFQSDDRDLPLVGEIPSSERFNRLAWGRNGSGSEEFALGLIAGGLVDGNIDLWNPLSLIGSQPSENALVGHLSVHKGPVRGLEFNAISSNLLASGADDGEICIWDLLKPSEPSHFPLLKGSGSATQGEISFISWNRKVQQILASTSYNGTTVIWDLRKQKPIINFADSVRRRCSVLQWNPNVTTQIMVASDDDSSPTLKLWDMRNIMSPVREFTGHQRGVIAMEWCPSDSSYLLTCAKDNRTICWDTNTAEIVAELPAGNNWNFDVHWYPKIPGVISASSFDGKIGIYNIEGCSRYGVEENNFGTAPLKAPKWYKRPVGASFGFGGKLVSCHARAPAKGTSSILSEVFLHSLVTEQSLVSRTSEFEAAIENGDMTSLRGLCEKKSEETESEEEKETWGLLKIMFEEEGTSRTKLISHLGFTLPVAEKDQAVDGLSSDLNGIRLEDTAADALDLDDSNEAAAFAMDNGEDFFNNFPAKPDTPVSTSAKDFMPSDTDFSTKGEETQEMQEEEEESSDPVFDNAIQRALIVGDYKEAVDQCITANKMADALVIAHVGGTALWESTREKYLKTSSAPYMKVVSAMVNNDLRSLIYTRSHKFWKETLALLCTFAQGEQWTTLCDALASKLMAAGNTLAAVLCYICAGNVDRTVEIWSRSLANERDGRSYAELLQDLMEKTLVLALATGNKKFSASLCKLFESYAEILASQGLLTTAMKYLKVLDSGGLSPELSILRDRISLSAEPETNTTASGNTQPQSTMPYNQEPTQAQPNVLANPYDNQYQQPYTDSYYVPQVSHPPMQQPTMFMPHQAQPAPQPSFTPAPTSNAQPSMRTTFVPSTPPALKNADQYQQPTMSSHSFTGPSNNAYPVPPGPGQYAPSGPSQLGQYPNPKMPQVVAPAAGPIGFTPMATPGVAPRSVQPASPPTQQAAAQAAPAPATPPPTVQTADTSNVPAHQKPVIATLTRLFNETSEALGGARANTTKKREIEDNSRKLGALFVKLNSGDISKNAADKLAQLCQALDNNDFSTALQIQVLLTTSEWDECNFWLATLKRMMVKARQNVR

This test deals with T1, TAP-AtSYP32 (9 x myc-AtSYP32) fusion protein (Arabidopsis thaliana). In words: affinity purification with mass spectrometry.
In the case of B1, the binding entry is given as “binds”.

As to B2, the binding result is given as “binds”.

With B3, the binding entry is given as “binds”.

Regarding B4, the binding result was “binds”.

Regarding B5, the binding entry is listed as “binds”.

As for B6, the binding entry is given as “binds”.

B7: the binding entry is recorded as “binds”.
